This is one part of the list.
Experiments:
Assay in all cases: glycan array binding signal (z-score within array); higher = stronger binding
Settings in all cases: glycan notation: IUPAC condensed, linker removed
[1] = molecular target: Gal(b1-3)GlcNAc(b1-6)[Gal(b1-3)]GalNAc
How it was run: (§1)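 Glycan array data came from 3228 arrays in the Consortium for Functional Glycomics database, and only arrays with an available protein sequence were kept. Glycan names were put into IUPAC-condensed notation, and columns mapping to the same glycan were averaged. The binding signal is a within-array Z-score, averaged across arrays of one protein sequence run at different concentrations or buffers and across linkers. A negative Z-score can be read as non-binding.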

Gal(b1-3)GlcNAc6S = molecular target: Gal(b1-3)GlcNAc6S
How it was run: as §1

[2] = molecular target: Gal(b1-3)[Fuc(a1-4)]GlcNAc
How it was run: as §1

[3] = molecular target: Gal(b1-3)[Fuc(a1-4)]GlcNAc(b1-2)Man
How it was run: as §1

[4] = molecular target: Gal(b1-3)[Fuc(a1-4)]GlcNAc(b1-2)Man(a1-3)[Gal(b1-3)[Fuc(a1-4)]GlcNAc(b1-2)Man(a1-6)]Man(b1-4)GlcNAc(b1-4)[Fuc(a1-6)]GlcNAc
How it was run: as §1

[5] = molecular target: Gal(b1-3)[Fuc(a1-4)]GlcNAc(b1-3)Gal(b1-3)[Fuc(a1-4)]GlcNAc
How it was run: as §1

[6] = molecular target: Gal(b1-3)[Fuc(a1-4)]GlcNAc(b1-3)Gal(b1-4)[Fuc(a1-3)]GlcNAc
How it was run: as §1

[7] = molecular target: Gal(b1-3)[Fuc(a1-4)]GlcNAc(b1-6)GalNAc
How it was run: as §1

[8] = molecular target: Gal(b1-3)[GlcNAc(b1-6)]GalNAc
How it was run: as §1

[9] = molecular target: Gal(b1-3)[Neu5Ac(a2-6)]GalNAc
How it was run: as §1

[10] = molecular target: Gal(b1-3)[Neu5Ac(a2-6)]GlcNAc(b1-4)Gal(b1-4)Glc
How it was run: as §1

[11] = molecular target: Gal(b1-3)[Neu5Ac(b2-6)]GalNAc
How it was run: as §1

Gal(b1-4)Gal = molecular target: Gal(b1-4)Gal
How it was run: as §1

[12] = molecular target: Gal(b1-4)GalNAc(a1-3)[Fuc(a1-2)]Gal(b1-4)GlcNAc
How it was run: as §1

[13] = molecular target: Gal(b1-4)GalNAc(b1-3)[Fuc(a1-2)]Gal(b1-4)GlcNAc
How it was run: as §1

Gal(b1-4)Glc = molecular target: Gal(b1-4)Glc
How it was run: as §1

Gal(b1-4)Glc6S = molecular target: Gal(b1-4)Glc6S
How it was run: as §1

Gal(b1-4)GlcNAc = molecular target: Gal(b1-4)GlcNAc
How it was run: as §1

[14] = molecular target: Gal(b1-4)GlcNAc(a1-6)Gal(b1-4)GlcNAc
How it was run: as §1

Gal(b1-4)GlcNAc(b1-2)Man = molecular target: Gal(b1-4)GlcNAc(b1-2)Man
How it was run: as §1

[15] = molecular target: Gal(b1-4)GlcNAc(b1-2)Man(a1-3)Man(b1-4)GlcNAc(b1-4)GlcNAc
How it was run: as §1

[16] = molecular target: Gal(b1-4)GlcNAc(b1-2)Man(a1-3)[Gal(b1-4)GlcNAc(b1-2)Man(a1-6)]Man(b1-4)GlcNAc(b1-4)GlcNAc
How it was run: as §1

[17] = molecular target: Gal(b1-4)GlcNAc(b1-2)Man(a1-3)[Gal(b1-4)GlcNAc(b1-2)Man(a1-6)]Man(b1-4)GlcNAc(b1-4)[Fuc(a1-6)]GlcNAc
How it was run: as §1

[18] = molecular target: Gal(b1-4)GlcNAc(b1-2)Man(a1-3)[Gal(b1-4)GlcNAc(b1-2)Man(a1-6)][Gal(b1-4)GlcNAc(b1-4)]Man(b1-4)GlcNAc(b1-4)[Fuc(a1-6)]GlcNAc
How it was run: as §1

[19] = molecular target: Gal(b1-4)GlcNAc(b1-2)Man(a1-3)[Gal(b1-4)GlcNAc(b1-2)Man(a1-6)][GlcNAc(b1-4)]Man(b1-4)GlcNAc(b1-4)[Fuc(a1-6)]GlcNAc
How it was run: as §1

[20] = molecular target: Gal(b1-4)GlcNAc(b1-2)Man(a1-3)[GlcNAc(b1-2)Man(a1-6)]Man(b1-4)GlcNAc(b1-4)GlcNAc
How it was run: as §1

[21] = molecular target: Gal(b1-4)GlcNAc(b1-2)Man(a1-3)[GlcNAc(b1-4)][Gal(b1-4)GlcNAc(b1-2)Man(a1-6)]Man(b1-4)GlcNAc(b1-4)GlcNAc
How it was run: as §1

[22] = molecular target: Gal(b1-4)GlcNAc(b1-2)Man(a1-3)[Man(a1-6)]Man(b1-4)GlcNAc(b1-4)GlcNAc
How it was run: as §1

[23] = molecular target: Gal(b1-4)GlcNAc(b1-2)Man(a1-6)Man(b1-4)GlcNAc(b1-4)GlcNAc
How it was run: as §1

[24] = molecular target: Gal(b1-4)GlcNAc(b1-2)Man(a1-6)[GlcNAc(b1-2)Man(a1-3)]Man(b1-4)GlcNAc(b1-4)GlcNAc
How it was run: as §1

[25] = molecular target: Gal(b1-4)GlcNAc(b1-2)Man(a1-6)[Man(a1-3)]Man(b1-4)GlcNAc(b1-4)GlcNAc
How it was run: as §1

[26] = molecular target: Gal(b1-4)GlcNAc(b1-2)[Gal(b1-4)GlcNAc(b1-4)]Man(a1-3)[Gal(b1-4)GlcNAc(b1-2)Man(a1-6)]Man(b1-4)GlcNAc(b1-4)GlcNAc
How it was run: as §1

[27] = molecular target: Gal(b1-4)GlcNAc(b1-2)[Gal(b1-4)GlcNAc(b1-4)]Man(a1-3)[Gal(b1-4)GlcNAc(b1-2)[Gal(b1-4)GlcNAc(b1-6)]Man(a1-6)]Man(b1-4)GlcNAc(b1-4)GlcNAc
How it was run: as §1

[28] = molecular target: Gal(b1-4)GlcNAc(b1-2)[Gal(b1-4)GlcNAc(b1-4)]Man(a1-3)[GlcNAc(b1-4)][Gal(b1-4)GlcNAc(b1-2)Man(a1-6)]Man(b1-4)GlcNAc(b1-4)GlcNAc
How it was run: as §1

[29] = molecular target: Gal(b1-4)GlcNAc(b1-2)[Gal(b1-4)GlcNAc(b1-4)]Man(a1-3)[GlcNAc(b1-4)][Gal(b1-4)GlcNAc(b1-2)[Gal(b1-4)GlcNAc(b1-6)]Man(a1-6)]Man(b1-4)GlcNAc(b1-4)GlcNAc
How it was run: as §1

[30] = molecular target: Gal(b1-4)GlcNAc(b1-2)[Gal(b1-4)GlcNAc(b1-6)]Man(a1-6)[Gal(b1-4)GlcNAc(b1-2)Man(a1-3)]Man(b1-4)GlcNAc(b1-4)GlcNAc
How it was run: as §1

[31] = molecular target: Gal(b1-4)GlcNAc(b1-2)[Gal(b1-4)GlcNAc(b1-6)]Man(a1-6)[Gal(b1-4)GlcNAc(b1-2)Man(a1-3)]Man(b1-4)GlcNAc(b1-4)[Fuc(a1-6)]GlcNAc
How it was run: as §1

[32] = molecular target: Gal(b1-4)GlcNAc(b1-2)[Gal(b1-4)GlcNAc(b1-6)]Man(a1-6)[GlcNAc(b1-4)][Gal(b1-4)GlcNAc(b1-2)Man(a1-3)]Man(b1-4)GlcNAc(b1-4)GlcNAc
How it was run: as §1

[33] = molecular target: Gal(b1-4)GlcNAc(b1-2)[Gal(b1-4)GlcNAc(b1-6)]Man(a1-6)[GlcNAc(b1-4)][Gal(b1-4)GlcNAc(b1-2)[Gal(b1-4)GlcNAc(b1-4)]Man(a1-3)]Man(b1-4)GlcNAc(b1-4)[Fuc(a1-6)]GlcNAc
How it was run: as §1

[34] = molecular target: Gal(b1-4)GlcNAc(b1-3)Gal(b1-3)GalNAc
How it was run: as §1

[35] = molecular target: Gal(b1-4)GlcNAc(b1-3)Gal(b1-3)GlcNAc
How it was run: as §1

[36] = molecular target: Gal(b1-4)GlcNAc(b1-3)Gal(b1-4)Glc
How it was run: as §1

[37] = molecular target: Gal(b1-4)GlcNAc(b1-3)Gal(b1-4)GlcNAc
How it was run: as §1

[38] = molecular target: Gal(b1-4)GlcNAc(b1-3)Gal(b1-4)GlcNAc(b1-2)Man(a1-3)[Gal(b1-4)GlcNAc(b1-3)Gal(b1-4)GlcNAc(b1-2)Man(a1-6)]Man(b1-4)GlcNAc(b1-4)GlcNAc
How it was run: as §1

[39] = molecular target: Gal(b1-4)GlcNAc(b1-3)Gal(b1-4)GlcNAc(b1-2)Man(a1-3)[Gal(b1-4)GlcNAc(b1-3)Gal(b1-4)GlcNAc(b1-2)Man(a1-6)]Man(b1-4)GlcNAc(b1-4)[Fuc(a1-6)]GlcNAc
How it was run: as §1

B1: PhypaEULS3 (Physcomitrella patens) (protein)
chain: MLPVRLHCKADPNFNLAAVPGQGPVMVPFSPNDDFQVWYKDVTMSTRVKDETGSSAFSLINKATGQALRHAPEDLAQCLLADYDSNALDQTVLWTMSEDMGQGYCCIRLASQITRNLDVFRGDKKSGGVKEGSPVITFAWKKQDNQIWKMITAILEQKLISEEDLNSAVDHHHHHH
[1]
  glycan array binding signal (z-score): -0.444
Gal(b1-3)GlcNAc6S
  glycan array binding signal (z-score): 1.42
[2]
  glycan array binding signal (z-score): -0.114
[3]
  glycan array binding signal (z-score): 0.924
[4]
  glycan array binding signal (z-score): -0.195
[5]
  glycan array binding signal (z-score): -0.253
[6]
  glycan array binding signal (z-score): 0.581
[7]
  glycan array binding signal (z-score): -0.015
[8]
  glycan array binding signal (z-score): -0.997
[9]
  glycan array binding signal (z-score): -0.203
[10]
  glycan array binding signal (z-score): 0.491
[11]
  glycan array binding signal (z-score): 0.173
Gal(b1-4)Gal
  glycan array binding signal (z-score): 0.1
[12]
  glycan array binding signal (z-score): -1.36
[13]
  glycan array binding signal (z-score): -1.04
Gal(b1-4)Glc
  glycan array binding signal (z-score): -0.054
Gal(b1-4)Glc6S
  glycan array binding signal (z-score): 0.095
Gal(b1-4)GlcNAc
  glycan array binding signal (z-score): -0.988
[14]
  glycan array binding signal (z-score): 0.599
Gal(b1-4)GlcNAc(b1-2)Man
  glycan array binding signal (z-score): 1.11
[15]
  glycan array binding signal (z-score): 0.27
[16]
  glycan array binding signal (z-score): -0.056
[17]
  glycan array binding signal (z-score): -0.773
[18]
  glycan array binding signal (z-score): 0.873
[19]
  glycan array binding signal (z-score): 0.268
[20]
  glycan array binding signal (z-score): -0.053
[21]
  glycan array binding signal (z-score): 0.673
[22]
  glycan array binding signal (z-score): 1.14
[23]
  glycan array binding signal (z-score): 0.608
[24]
  glycan array binding signal (z-score): -0.146
[25]
  glycan array binding signal (z-score): 0.338
[26]
  glycan array binding signal (z-score): -2.62
[27]
  glycan array binding signal (z-score): -0.549
[28]
  glycan array binding signal (z-score): -0.024
[29]
  glycan array binding signal (z-score): 0.484
[30]
  glycan array binding signal (z-score): 0.38
[31]
  glycan array binding signal (z-score): 0.56
[32]
  glycan array binding signal (z-score): -0.969
[33]
  glycan array binding signal (z-score): -1.18
[34]
  glycan array binding signal (z-score): 2.27
[35]
  glycan array binding signal (z-score): -0.074
[36]
  glycan array binding signal (z-score): 0.496
[37]
  glycan array binding signal (z-score): -0.248
[38]
  glycan array binding signal (z-score): 1.43
[39]
  glycan array binding signal (z-score): 0.163

Source: the supplement of paper PMC8728848
